Measurements taken from PMC6830309, “Characterizing CDK8/19 Inhibitors through a NFκB-Dependent Cell-Based Assay” (Cells, 2019).

Tests used:
[1] = tested on: TNFα-induced NFκB reporter activity in CDK8/19 dKO 293 cells; experiment: NFκB-dependent luciferase reporter cell-based assay in CDK8/19 dKO 293 cells; details: Homo sapiens, HEK293; 293-dKO-NFKB-LUC#2; 10 ng/mL TNFα 3 h
Procedure: (§1) The lentiviral construct pHAGE-NFkB-TA-LUC-UBC-dTomato was generated by Darrell Kotton […] Parental WT 293 cells or CDK8/19 dKO 293 cells were transduced with the lentivirus and dTomato-positive cells were sorted out using FACS Aria III. Single-cell clones were expanded and tested for luciferase reporter activities under TNFα- and/or senexin B-treated and untreated conditions with Bright-Glo Luciferase Assay System (Promega, Madison, WI, USA).
(§2) On day 1, cells were seeded in polyethyleneimine-coated 96-well plates at the density of 5 × 10^4 cells per well. […] Chemiluminescence intensity of each well was measured with ChemiDoc Touch™ (Bio-Rad) and quantified using ImageLab software (Bio-Rad). The raw data were then further processed with GraphPad Prism 7.0 (GraphPad Software, San Diego, CA, USA) for curve-fitting and IC50 calculation.

[2] = tested on: TNFα-induced NFκB reporter activity in WT 293 cells (CDK8/19 inhibition); experiment: NFκB-dependent luciferase reporter cell-based assay in WT 293 cells; details: Homo sapiens, HEK293, 3 h, 293-WT-NFKB-LUC#8; 10 ng/mL TNFα 3 h
Procedure: as §1, §2

How did the IC50 [1] turn out when CCc1cnn2c(NCc3ccc[n+]([O-])c3)cc(N3CCCC[C@H]3CCO)nc12 [Dinaciclib] was run?
Its IC50 is 3.6 nM.

What about the IC50 [2] of the same molecule?
Its IC50 is 4.4 nM.
